These are yes or no findings as the source states them, for the method shown. In cells and extracts the contact can be indirect. Some results given as binding are weak or reduced against the parent protein; the word gives no strength. For some assays here: Sequences can lack the tags named with a protein.
Experiments:
[1] = biological target: T1, full-length Flag-tagged recombinant NAT10 (UniProt Q9H0A0); assay: co-IP; anti-Flag precipitation from J82 cells with Flag-tagged full-length or truncated CLIC3 or NAT10; blot for the endogenous partner; Co-IP buffer 20 mM Tris-HCl pH 7.5, 150 mM NaCl, 1 mM EDTA, 0.5% NP-40; 4 °C
T1 sequence: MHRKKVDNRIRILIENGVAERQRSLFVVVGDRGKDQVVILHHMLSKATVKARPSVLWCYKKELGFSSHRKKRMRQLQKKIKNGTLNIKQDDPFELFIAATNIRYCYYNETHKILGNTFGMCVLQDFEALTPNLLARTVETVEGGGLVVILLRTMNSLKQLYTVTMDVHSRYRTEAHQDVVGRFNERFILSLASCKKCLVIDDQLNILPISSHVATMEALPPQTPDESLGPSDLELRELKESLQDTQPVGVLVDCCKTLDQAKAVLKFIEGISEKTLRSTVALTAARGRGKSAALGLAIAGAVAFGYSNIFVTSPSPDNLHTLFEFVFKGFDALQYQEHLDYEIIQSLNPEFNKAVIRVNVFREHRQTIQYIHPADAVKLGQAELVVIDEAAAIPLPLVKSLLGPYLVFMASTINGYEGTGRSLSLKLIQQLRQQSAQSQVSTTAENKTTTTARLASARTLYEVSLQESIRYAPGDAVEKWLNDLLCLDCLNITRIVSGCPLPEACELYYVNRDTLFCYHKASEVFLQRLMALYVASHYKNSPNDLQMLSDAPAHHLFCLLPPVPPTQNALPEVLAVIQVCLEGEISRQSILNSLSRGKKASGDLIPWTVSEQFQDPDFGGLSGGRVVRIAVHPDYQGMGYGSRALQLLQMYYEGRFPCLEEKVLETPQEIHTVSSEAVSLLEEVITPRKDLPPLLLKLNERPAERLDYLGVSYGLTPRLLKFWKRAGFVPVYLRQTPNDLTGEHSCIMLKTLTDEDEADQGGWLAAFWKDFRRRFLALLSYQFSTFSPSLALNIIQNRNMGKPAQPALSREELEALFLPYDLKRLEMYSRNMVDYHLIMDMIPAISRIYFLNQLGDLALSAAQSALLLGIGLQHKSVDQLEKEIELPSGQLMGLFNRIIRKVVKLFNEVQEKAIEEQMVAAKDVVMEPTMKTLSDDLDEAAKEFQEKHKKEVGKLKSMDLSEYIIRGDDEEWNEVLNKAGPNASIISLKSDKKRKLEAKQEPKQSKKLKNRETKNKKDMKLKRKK

[2] = biological target: T2, N-acetyltransferase 10 (NAT10) (human (endogenous in J82 and TCCSUP)) (UniProt Q9H0A0); assay: co-IP; endogenous proteins in J82 and TCCSUP lysates; antibody against CLIC3 or against NAT10 versus control IgG; Co-IP buffer 20 mM Tris-HCl pH 7.5, 150 mM NaCl, 1 mM EDTA, 0.5% NP-40; 4 °C; Protein A/G magnetic beads; Western blotting
T2 sequence: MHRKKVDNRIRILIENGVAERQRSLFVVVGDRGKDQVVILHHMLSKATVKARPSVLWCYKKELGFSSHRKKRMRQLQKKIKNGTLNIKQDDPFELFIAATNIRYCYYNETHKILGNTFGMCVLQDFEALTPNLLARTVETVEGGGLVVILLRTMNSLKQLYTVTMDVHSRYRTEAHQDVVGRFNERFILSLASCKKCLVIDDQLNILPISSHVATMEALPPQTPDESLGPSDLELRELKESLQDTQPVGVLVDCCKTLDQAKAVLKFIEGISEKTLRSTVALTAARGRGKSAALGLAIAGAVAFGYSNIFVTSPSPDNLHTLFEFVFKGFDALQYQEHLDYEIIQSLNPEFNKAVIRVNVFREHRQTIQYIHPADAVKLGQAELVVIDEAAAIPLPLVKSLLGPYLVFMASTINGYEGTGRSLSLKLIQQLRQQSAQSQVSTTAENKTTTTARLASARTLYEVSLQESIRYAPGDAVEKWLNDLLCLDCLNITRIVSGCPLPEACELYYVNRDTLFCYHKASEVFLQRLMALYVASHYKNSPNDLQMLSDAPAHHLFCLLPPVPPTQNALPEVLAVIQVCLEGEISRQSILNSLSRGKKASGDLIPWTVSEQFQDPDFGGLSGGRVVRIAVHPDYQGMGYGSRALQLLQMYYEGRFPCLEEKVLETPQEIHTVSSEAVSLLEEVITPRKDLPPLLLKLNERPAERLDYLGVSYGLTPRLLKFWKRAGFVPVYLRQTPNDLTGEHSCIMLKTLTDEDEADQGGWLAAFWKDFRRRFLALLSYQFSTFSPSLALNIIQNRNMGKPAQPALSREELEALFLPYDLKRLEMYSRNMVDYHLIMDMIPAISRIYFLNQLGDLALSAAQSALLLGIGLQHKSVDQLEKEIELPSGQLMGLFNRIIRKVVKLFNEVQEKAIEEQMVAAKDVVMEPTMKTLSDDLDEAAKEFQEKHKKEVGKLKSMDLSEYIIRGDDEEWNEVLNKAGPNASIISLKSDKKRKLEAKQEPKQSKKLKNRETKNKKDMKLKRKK

B1: Chloride intracellular channel 3 (CLIC3) protein (protein, UniProt O95833 1-236)
chain: MAETKLQLFVKASEDGESVGHCPSCQRLFMVLLLKGVPFTLTTVDTRRSPDVLKDFAPGSQLPILLYDSDAKTDTLQIEDFLEETLGPPDFPSLAPRYRESNTAGNDVFHKFSAFIKNPVPAQDEALYQQLLRALARLDSYLRAPLEHELAGEPQLRESRRRFLDGDRLTLADCSLLPKLHIVDTVCAHFRQAPIPAELRGVRRYLDSAMQEKEFKYTCPHSAEILAAYRPAVHPR
binding [1]: binds | binding [2]: binds

Source: article PMC10770081
